Values from PubChem BioAssay AID1159584 (Peter MacCallum Cancer Centre, 2016).
Aim: 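Genes whose loss is lethal only together with E-cadherin loss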 (primary screen). Cell system: human MCF10A breast epithelial cells, parental and CDH1-null. Reagents: siRNA against human genes. Measured: 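Cell viability by CellTiter-Glo ATP luminescence, each line scaled to the mean of mock wells across plates, then CDH1-null over parental ratio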. Direction: CDH1-null / parental viability ratio: higher = CDH1-null cells survive relatively better than parental.
In all, the deposit lists about 18,000 reagents; shown is a random part of them. Reagents against one gene are numbered here. Further read-outs or replicates are left out here. Reagent sequences are not shown. The record does not give: the amount of reagent, the time to read-out.

no.	gene knocked down	reagent no.	CDH1-null / parental viability ratio
1	DNAL4	1	0.86
2	RNF145	1	0.87
3	CSF3	1	1.07
4	SLC3A1	1	0.77
5	PLA2G4E	1	1.06
6	DUSP6	1	1.23
7	CYP21A2	1	1.08
8	CHRD	1	0.95
9	RHBDD2	1	1.03
10	OR51B6	1	1.06
11	VMA22	1	1.15
12	SPPL3	1	1.18
13	CNKSR2	1	0.89
14	ZNF362	1	1.52
15	DCDC1	1	1.06
16	DCDC1	2	1.09
17	THAP7	1	1.18
18	SULT1E1	1	1.08
19	XIRP1	1	0.75
20	TMEM132D	1	1
21	GAS2L3	1	0.83
22	KCNIP1	1	1.17
23	FOXD4L1	1	1.09
24	SKAP2	1	0.86
25	EMC7	1	0.76
26	TPST2	1	0.97
27	ELMO3	1	0.85
28	PTK7	1	1.1
29	RAX2	1	1.42
30	OR10T2	1	0.91
31	DNASE1L3	1	0.86
32	ZSCAN31	1	0.95
33	ACTR5	1	1.28
34	TSPYL4	1	0.99
35	TTC39C	1	0.78
36	BPIFA2	1	0.69
37	SPDYE1	1	1.07
38	ZNF556	1	0.94
39	OSBPL3	1	0.79
40	GPC6	1	1
41	RAB35	1	0.71
42	PPP1R14C	1	1.22
43	MXI1	1	1.17
44	DLX5	1	1.06
45	BPIFB1	1	0.95
46	GPAT4	1	1.16
47	H2BW1	1	1.1
48	FLJ46838 (retired record)	1	1.2
49	OR12D2	1	1.01
50	FAM180A	1	1.1
51	SEMA3E	1	0.94
52	KRTCAP3	1	0.96
53	DXO	1	0.5
54	SCP2D1	1	1.2
55	CA1	1	1.11
56	ACADM	1	1.01
57	NNAT	1	0.74
58	SPATA20	1	1.05
59	CES1	1	0.8
60	CES2	1	1.31
61	CFLAR	1	2
62	ZNF284	1	0.93
63	XRCC2	1	1.35
64	BCHE	1	0.93
65	SH3BGRL	1	0.9
66	SMG8	1	0.69
67	H2BC12	1	0.79
68	HESX1	1	1.12
69	SPAST	1	0.81
70	MGAT1	1	0.92
71	C19orf73	1	0.78
72	GDNF	1	1.03
73	NXPE1	1	0.85
74	EPHX3	1	0.95
75	MARK4	1	0.94
76	COX7A2L	1	0.89
77	HEXIM2	1	1.06
78	PDLIM3	1	1.21
79	GCNA	1	0.75
80	TEX9	1	1.17
81	THBS3	1	1.06
82	SCO1	1	1.21
83	NECAB3	1	0.79
84	ARHGAP36	1	0.94
85	GARNL3	1	1.05
86	ZNF697	1	0.95
87	CWC25	1	0.99
